In article doi:10.1101/2024.03.19.585677 one finds binding result and Kd data, which are given here for one sequence.

Data set [1] relates to GST-TrxA (Xanthomonas campestris). Put plainly: EMSA. The settings on record: TrxA alone.
In data set [2] the target is PSB15 WT (Xanthomonas phage phiLf-UK) (UniProt Q8P905). The data set is described as follows: EMSA. Conditions: apparent Kd. (A gel shift assay detects complexes by their altered migration in electrophoresis.)
Data set [3] has the same target. The data set is described as follows: UV cross-linking, Edman sequencing. The settings on record: F15 is the contact residue.

The exact form of at least one protein or probe is not confirmed. For part of these data: Negatives hold for the conditions tested.

On to “CGCGGGCCTCTACAACCGGCACCGTG [phiLf-UK/phiLf PS]”, for which the figures for the binding result in data set [1] and in data set [3] were “no binding” and “binds”, respectively. Besides, in data set [2], the Kd was found to be 0.0102 µM.
